Experimental data: PMC6403405
No constants are given. Whether binding was seen depends on the method and setting. Binding seen in cells or lysates may run through a third protein. Some entries that bind do so weakly or less than the wild type.

Protein sequences, listed by entry. Tags and fused reporters are not part of them. Lines headed by an entry give the natural chain unless they say otherwise; changes in a name come on top. Residues count along the entry.
UniProt Q15797: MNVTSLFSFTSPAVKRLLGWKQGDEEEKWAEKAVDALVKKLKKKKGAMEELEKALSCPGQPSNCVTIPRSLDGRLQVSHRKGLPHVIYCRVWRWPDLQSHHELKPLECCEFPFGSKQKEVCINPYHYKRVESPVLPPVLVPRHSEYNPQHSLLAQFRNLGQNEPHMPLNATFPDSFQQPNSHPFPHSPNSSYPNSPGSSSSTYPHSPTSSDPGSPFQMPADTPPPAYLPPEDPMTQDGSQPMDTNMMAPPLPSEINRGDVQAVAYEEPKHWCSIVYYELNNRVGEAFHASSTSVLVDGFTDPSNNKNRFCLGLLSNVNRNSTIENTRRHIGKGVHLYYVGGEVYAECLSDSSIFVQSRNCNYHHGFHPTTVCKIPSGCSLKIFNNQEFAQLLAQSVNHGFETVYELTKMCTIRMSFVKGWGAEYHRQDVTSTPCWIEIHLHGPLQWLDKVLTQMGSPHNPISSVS
UniProt P05556: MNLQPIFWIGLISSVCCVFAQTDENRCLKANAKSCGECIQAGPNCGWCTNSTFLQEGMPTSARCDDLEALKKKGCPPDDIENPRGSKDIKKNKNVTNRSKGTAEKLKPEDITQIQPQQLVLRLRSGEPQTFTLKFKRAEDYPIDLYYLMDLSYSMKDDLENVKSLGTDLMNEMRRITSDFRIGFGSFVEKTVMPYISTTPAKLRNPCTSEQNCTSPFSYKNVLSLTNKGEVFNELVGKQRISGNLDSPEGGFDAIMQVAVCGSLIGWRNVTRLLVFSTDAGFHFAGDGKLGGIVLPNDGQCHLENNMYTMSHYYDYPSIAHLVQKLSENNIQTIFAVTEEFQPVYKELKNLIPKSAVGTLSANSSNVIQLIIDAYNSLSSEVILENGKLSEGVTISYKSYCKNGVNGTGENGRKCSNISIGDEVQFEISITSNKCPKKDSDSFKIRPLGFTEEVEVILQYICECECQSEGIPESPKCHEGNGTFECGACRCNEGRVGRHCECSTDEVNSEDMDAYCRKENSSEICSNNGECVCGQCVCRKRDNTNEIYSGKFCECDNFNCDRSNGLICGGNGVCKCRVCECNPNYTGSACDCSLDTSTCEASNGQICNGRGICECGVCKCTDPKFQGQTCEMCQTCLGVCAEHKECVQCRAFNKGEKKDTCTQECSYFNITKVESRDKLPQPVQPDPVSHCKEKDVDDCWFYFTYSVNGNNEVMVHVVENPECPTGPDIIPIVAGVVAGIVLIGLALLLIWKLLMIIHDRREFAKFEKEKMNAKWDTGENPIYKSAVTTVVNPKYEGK
UniProt P36894, residues 24-532: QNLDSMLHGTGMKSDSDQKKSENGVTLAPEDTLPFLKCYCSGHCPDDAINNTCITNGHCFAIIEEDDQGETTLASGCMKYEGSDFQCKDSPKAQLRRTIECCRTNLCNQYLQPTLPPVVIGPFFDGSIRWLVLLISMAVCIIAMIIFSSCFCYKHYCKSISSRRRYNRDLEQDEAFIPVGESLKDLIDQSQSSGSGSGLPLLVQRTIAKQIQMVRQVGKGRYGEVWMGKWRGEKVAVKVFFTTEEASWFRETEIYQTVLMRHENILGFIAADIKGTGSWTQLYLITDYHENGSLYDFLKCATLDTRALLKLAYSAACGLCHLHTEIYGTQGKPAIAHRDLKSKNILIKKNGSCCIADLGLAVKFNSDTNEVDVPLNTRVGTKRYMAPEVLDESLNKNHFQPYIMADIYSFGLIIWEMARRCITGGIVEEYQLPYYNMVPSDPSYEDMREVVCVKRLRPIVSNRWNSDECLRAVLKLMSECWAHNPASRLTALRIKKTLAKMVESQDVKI
UniProt O00238, residues 14-502: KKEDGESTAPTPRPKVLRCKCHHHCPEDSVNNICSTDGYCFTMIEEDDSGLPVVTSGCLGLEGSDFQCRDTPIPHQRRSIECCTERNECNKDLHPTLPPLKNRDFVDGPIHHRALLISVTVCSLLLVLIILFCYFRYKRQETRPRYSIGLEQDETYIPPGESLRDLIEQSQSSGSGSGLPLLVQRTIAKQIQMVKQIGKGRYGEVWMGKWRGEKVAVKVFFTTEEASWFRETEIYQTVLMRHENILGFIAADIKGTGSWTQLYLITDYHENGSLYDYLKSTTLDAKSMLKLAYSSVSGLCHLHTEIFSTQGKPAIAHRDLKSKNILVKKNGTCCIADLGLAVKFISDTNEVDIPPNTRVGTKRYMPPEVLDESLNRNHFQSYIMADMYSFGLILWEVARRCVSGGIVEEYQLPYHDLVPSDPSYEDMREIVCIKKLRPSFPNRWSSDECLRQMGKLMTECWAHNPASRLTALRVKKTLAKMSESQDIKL
UniProt P27361: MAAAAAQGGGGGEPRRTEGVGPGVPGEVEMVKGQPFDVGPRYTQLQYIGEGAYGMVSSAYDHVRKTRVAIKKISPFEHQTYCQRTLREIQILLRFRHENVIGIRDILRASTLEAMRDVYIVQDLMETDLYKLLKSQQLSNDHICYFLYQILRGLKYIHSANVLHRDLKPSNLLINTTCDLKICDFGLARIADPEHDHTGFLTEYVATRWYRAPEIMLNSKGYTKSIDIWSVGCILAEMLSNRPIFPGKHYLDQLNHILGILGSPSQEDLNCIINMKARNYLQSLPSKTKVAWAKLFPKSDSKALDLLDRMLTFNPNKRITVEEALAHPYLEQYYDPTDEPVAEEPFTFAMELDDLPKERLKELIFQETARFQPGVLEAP
UniProt P28482: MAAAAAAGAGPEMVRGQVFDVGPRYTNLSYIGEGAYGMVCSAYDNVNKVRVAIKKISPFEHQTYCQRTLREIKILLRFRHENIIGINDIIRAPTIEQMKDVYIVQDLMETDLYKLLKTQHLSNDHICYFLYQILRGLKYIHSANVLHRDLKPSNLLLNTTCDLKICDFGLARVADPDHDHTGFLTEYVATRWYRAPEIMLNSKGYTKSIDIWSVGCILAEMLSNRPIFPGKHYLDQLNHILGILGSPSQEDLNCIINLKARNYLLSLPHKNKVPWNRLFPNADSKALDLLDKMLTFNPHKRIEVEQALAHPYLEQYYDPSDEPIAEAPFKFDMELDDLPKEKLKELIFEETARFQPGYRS
UniProt Q13485: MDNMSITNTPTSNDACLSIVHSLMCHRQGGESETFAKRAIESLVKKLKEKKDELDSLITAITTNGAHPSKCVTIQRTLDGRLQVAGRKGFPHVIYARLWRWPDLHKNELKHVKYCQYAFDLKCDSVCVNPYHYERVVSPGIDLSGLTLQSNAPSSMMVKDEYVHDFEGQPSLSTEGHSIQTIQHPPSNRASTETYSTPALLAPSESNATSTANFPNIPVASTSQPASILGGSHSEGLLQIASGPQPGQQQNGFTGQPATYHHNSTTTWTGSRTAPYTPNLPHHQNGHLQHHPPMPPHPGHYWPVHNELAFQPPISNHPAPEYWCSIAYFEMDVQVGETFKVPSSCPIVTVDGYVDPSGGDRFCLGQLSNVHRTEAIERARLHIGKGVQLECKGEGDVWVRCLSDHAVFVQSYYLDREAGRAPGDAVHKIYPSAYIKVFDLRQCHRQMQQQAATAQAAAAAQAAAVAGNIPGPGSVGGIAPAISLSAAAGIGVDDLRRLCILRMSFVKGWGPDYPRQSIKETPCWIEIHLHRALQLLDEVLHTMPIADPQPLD

Key:
[1] = molecular target: SMAD1 (human (endogenous in 293T)) (UniProt Q15797); test: co-IP; endogenous proteins of 293T extracts; specific antibody and protein G agarose overnight at 4 °C; lysis buffer 150 mmol/L NaCl, 20 mmol/L HEPES, 1 mmol/L EDTA, 1 mmol/L EGTA, 10% glycerol, pH 7.4, 0.1% NP-40; seven washes; both directions; cells treated with 100 μg/mL COL2A1 or vehicle for 1 h, in some panels pretreated with 10 μg/mL ITGB1 blocking antibody, treated with BMP2 or COL2A1 silenced
SMAD1-Flag = SMAD1-Flag (UniProt Q15797); test: co-IP; 293T cells transfected with SMAD1-Flag and ITGB1-HA; anti-Flag or anti-HA affinity agarose overnight at 4 °C; seven washes; immunoblot with anti-HA and anti-Flag
ITGB1-HA = ITGB1-HA (UniProt P05556); test: pull-down; purified SMAD1-Flag incubated with ITGB1-HA linked to HA affinity agarose beads for 4 h at 4 °C, bead washing and immunoblotting; only the binder purified

Row | Substance | binding [1] | also measured
1 | BMPR1A (from UniProt P36894 24-532) (receptor) | binds | –
2 | BMPR1B (from UniProt O00238 14-502) (receptor) | binds | –
3 | ERK1 (from UniProt P27361 1-379) (enzyme) | binds | –
4 | ERK2 (from UniProt P28482 1-360) (enzyme) | binds | –
5 | ITGB1-HA (from UniProt P05556 21-798) (receptor) | – | binding (SMAD1-Flag): binds
6 | SMAD1-Flag (from UniProt Q15797 1-465) | – | binding (ITGB1-HA): binds
7 | SMAD4 (from UniProt Q13485 1-552) | binds | –
8 | integrin β1 (ITGB1) (from UniProt P05556 21-798) (receptor) | binds | –
